# Source: PubChem BioAssay AID2685 (National Center for Advancing Translational Sciences (NCATS), 2010)
# The other results are listed elsewhere or left out. Shown are side measurements of this screen, not its main read-out; they come without a call. The list favours compounds with an active or inconclusive main result. The note in brackets gives the kind of curve behind each potency; many fits are weak.
# Test: qHTS Assay for Lipid Storage Modulators in Drosophila S3 Cells;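 on cell number change: cells counted by Cell Tracker Red CMTPX staining in the red channel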
# Details: BODIPY lipid droplet fluorescence, 18-24 h; for cell number change: measured here: cell count max response, cells fed with added oleic acid
# In short: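 Drosophila S3 cells got compounds at several concentrations plus oleic acid (400 uM solution). Laser-scanning cytometry with 488 nm excitation read lipid droplets at 500-530 nm and cells at 575-640 nm. Percent activity was relative to 20 uM Triacsin C.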
# [1] = measured here: cell number channel AC50, cells fed with added oleic acid
# [2] = measured here: lipid fluorescence (Fed channel) AC50, cells fed with added oleic acid
Structure (SMILES),cell number change,AC50 [1],AC50 [2]
Nc1nc(SCC(=O)N2CCN(S(=O)(=O)c3ccc(Cl)cc3)CC2)n[nH]1,103%,"0.00731 µM [rising, full curve, poor fit]",
COc1cc(SC)ccc1C(=O)NC1CCCCC1,,"0.00461 µM [falling, full curve, poor fit]","20.6 µM [falling, partial curve]"
COc1ccc(N(C)S(=O)(=O)c2cccc(C(=O)Nc3nc(C)c(C(C)=O)s3)c2)cc1,,,"0.0291 µM [falling, full curve, poor fit]"
Cc1ccc(NC(=O)CSc2nnnn2-c2ccc3c(c2)OCO3)cc1C,-45.4%,"9.2 µM [falling, partial curve]","14.6 µM [falling, partial curve]"
CCOC(=O)C1=NN(c2ccccc2C)C2=NC(C)=C(C(=O)OC)C(c3cccc(OC)c3)N12 (stereo unspecified),-9.7%,,"2.31 µM [rising, partial curve]"
COc1cccc(C(=O)COC(=O)c2n[nH]c(=O)c3ccccc23)c1,65%,"14.6 µM [rising, partial curve]","20.6 µM [rising, partial curve]"
CN(C)C(=O)c1ccc(-n2nc(C(F)(F)F)c3c2CCCC3)cc1,-6.28%,"0.517 µM [rising, partial curve]","2.31 µM [rising, partial curve]"
CCOC(=O)Cc1csc(NC(=O)c2cccc(OC)c2)n1,-0.156%,,
O=C1/C(=C\c2cccc(O)c2)SC(=S)N1Cc1ccccc1,-34.7%,"11.6 µM [falling, partial curve, poor fit]",
C(=N\n1cnnc1)/c1ccccn1,-11.3%,,"29.1 µM [falling, single point]"
CCNc1nc(NC(C)C)nc(Nn2cnnc2)n1,-24.8%,"0.82 µM [falling, full curve, poor fit]","3.66 µM [falling, full curve]"
COc1ccc(C(=O)NC(=S)NNC(=O)COc2ccccc2)cc1,-12.4%,,
O=C(CSc1nc2ccsc2c(=O)n1NC(=O)c1ccccc1)Nc1nccs1,-21.5%,,"29.1 µM [falling, partial curve, poor fit]"
COC(=O)c1cc2cc(NS(=O)(=O)c3ccc(C)cc3)ccc2s1,-64.6%,"20.6 µM [falling, partial curve]","20.6 µM [falling, partial curve]"
CCN1C(=O)C(O)(CC(=O)c2ccc3c(c2)OCCO3)c2ccccc21 (stereo unspecified),14.2%,,"0.731 µM [rising, full curve, poor fit]"
CC(c1ccccc1)n1c(-c2ccncc2)n[nH]c1=S (stereo unspecified),4.14%,,"29.1 µM [rising, single point]"
Cc1cccc(C)c1NC(=O)CC(NCc1ccco1)C(=O)O (stereo unspecified),-105%,"25.9 µM [falling, partial curve, poor fit]","0.184 µM [falling, full curve]"
O=C(/C=C/c1ccccc1)N1CCC(c2ccccc2)C1 (stereo unspecified),11.7%,,
C[C@@H]1C(=O)OC[C@H]1NC(=O)OCc1ccccc1,-10.4%,,"0.651 µM [rising, full curve, poor fit]"
Cc1cc(NC(=O)CSc2cc(Cl)ccc2Cl)n(-c2ccccc2)n1,-21.8%,,"4.11 µM [falling, full curve]"

# Three compounds from above, arranged by molecular weight, high to low.
Structure (SMILES),cell number change,AC50 [1],AC50 [2]
O=C(CSc1nc2ccsc2c(=O)n1NC(=O)c1ccccc1)Nc1nccs1,-21.5%,,"29.1 µM [falling, partial curve, poor fit]"
COC(=O)c1cc2cc(NS(=O)(=O)c3ccc(C)cc3)ccc2s1,-64.6%,"20.6 µM [falling, partial curve]","20.6 µM [falling, partial curve]"
O=C1/C(=C\c2cccc(O)c2)SC(=S)N1Cc1ccccc1,-34.7%,"11.6 µM [falling, partial curve, poor fit]",

# Next entries follow:

Structure (SMILES),cell number change,AC50 [1],AC50 [2]
O=S(=O)(c1ccc(NC(=S)N2CCN(c3ccccc3F)CC2)cc1)N1CCOCC1,-6.89%,,
COCCNC(=O)c1cn(CCOC)c(=O)c2c1c1ccccc1n2C,41.4%,"29.1 µM [rising, single point]",
COc1ccc(C(=O)Nc2ccccc2C(=O)N2CCOCC2)cc1,-8.75%,,"0.184 µM [rising, single point]"
CCC(C)N(NC(C)=O)c1nc(Cl)nc(NC(C)(C)C)n1 (stereo unspecified),,"6.51 µM [falling, single point]","6.51 µM [falling, single point]"
CC(=O)N1CCN(Cc2nc3cc(NC(=O)c4ccc(F)cc4)ccc3n2C)CC1,16.3%,,"3.66 µM [falling, single point]"
CCC(=O)NNc1nc2c(C)cccc2s1,25.3%,,"0.0517 µM [rising, full curve, poor fit]"
COc1cc(NS(=O)(=O)c2ccc(NC(=S)NC(=O)/C=C/c3ccco3)cc2)ncn1,31.1%,,"3.66 µM [rising, full curve, poor fit]"
CC(=O)N1c2ccc(S(=O)(=O)N3CCC(C(=O)Nc4ncccc4C)CC3)cc2CC1C (stereo unspecified),,"0.0058 µM [falling, full curve, poor fit]",
CCCCOc1cccc(C(=O)N(Cc2ccccc2)C2CCS(=O)(=O)C2)c1 (stereo unspecified),-23%,,"14.6 µM [falling, partial curve]"
FCCCOc1ccc(-c2ccnc(-c3ccccc3)n2)cc1,-10%,,"29.1 µM [falling, single point]"
CCN1C(=O)CSC1=Nc1ccc(C(=O)O)cc1,-4.01%,,"0.58 µM [falling, single point]"
Cc1ccc2[nH]c3c(=O)n(N)c(C)nc3c2c1,45.2%,"0.00517 µM [rising, full curve, poor fit]","0.00517 µM [rising, full curve]"
CCc1noc(C)c1C(=O)OC(C)C(=O)Nc1ccccc1OC (stereo unspecified),49.8%,"13 µM [rising, partial curve, poor fit]",
Cc1ccc(NC2CCCN(C(=O)c3c(C)noc3C)C2)cc1C (stereo unspecified),-0.293%,,"8.2 µM [rising, partial curve]"
CC(C)(C)C(=O)Cn1ncc(N2CCOCC2)c(Br)c1=O,26.4%,"4.47 µM [rising, full curve, poor fit]",
CC(C)NC(=O)CN(Cc1ccc2c(c1)OCO2)C(=O)CCC(=O)Nc1ccccn1,,,"14.6 µM [falling, partial curve]"
COC(=O)c1ccc(CSc2nncn2C)cc1,-4.81%,,"5.8 µM [rising, full curve, poor fit]"
O=C(Nc1ccc(Cl)cc1)Nc1cc([N+](=O)[O-])ccc1F,-68.4%,"29.1 µM [falling, single point]","29.1 µM [falling, single point]"
Cc1ccc(C)c(OCC(=O)Nc2cccc(S(=O)(=O)NC3=NCCCCC3)c2)c1,-28.6%,,"35.5 µM [falling, single point]"
Cc1ccc(C(=O)NC(C#N)=C(Cl)Cl)cc1,-31.5%,"0.82 µM [falling, full curve, poor fit]","0.651 µM [falling, full curve, poor fit]"

Structure (SMILES),cell number change,AC50 [1],AC50 [2]
Cc1nc2cc(-c3ccc(Cl)cc3)nn2c(C)c1CCC(=O)NC(C)c1ccc2c(c1)OCCO2 (stereo unspecified),27.6%,,"3.26 µM [rising, single point]"
COc1ccc(CN(C(=O)c2snc(C(N)=O)c2N)C(C(=O)NC2CCCC2)c2cc(OC)ccc2OC)cc1 (stereo unspecified),23.3%,,"25.9 µM [falling, single point]"
Cc1ccc(CNC(=O)CCC2CCCN(Cc3cc4ccccc4o3)C2)o1 (stereo unspecified),16%,,"29.1 µM [rising, single point]"
Nc1nonc1-c1noc(-c2ccccc2Br)n1,,"0.651 µM [falling, full curve, poor fit]",
O=C1CCCCC1C(O)c1ccc(Cl)cc1 (stereo unspecified),28.8%,,"0.517 µM [rising, full curve, poor fit]"
COc1ccc(OC)c(Nc2ncnc3ccccc23)c1,-21.5%,,"0.116 µM [rising, single point]"
CCCn1c(SCC(=O)Nc2ccc3c(c2)CCC3)n[nH]c1=O,,,"13 µM [rising, partial curve, poor fit]"
COc1ccc(/C=N/n2cncn2)cc1CSc1ccccn1,-21.8%,,
NC(=O)N/N=C\c1cc(Br)ccc1O,1.74%,,"4.11 µM [falling, partial curve, poor fit]"
COc1ccc(-c2cc(C(=O)N/N=C/c3ccc(OC)c(COCC(F)(F)C(F)F)c3)c3ccccc3n2)c(OC)c1,0.712%,,"20.6 µM [rising, single point]"
O=C(CN1C(=O)NC2(CCCCC2)C1=O)N1CCN(S(=O)(=O)c2cccc([N+](=O)[O-])c2)CC1,-3.21%,,"0.366 µM [rising, full curve, poor fit]"
CCOC(=O)C1=NN(c2ccccc2C)C2=NC(C)=C(C(=O)OC)C(c3cccs3)N12 (stereo unspecified),-22.4%,,"32.6 µM [falling, single point]"
O=C(CCNS(=O)(=O)c1ccc(OC(F)(F)F)cc1)NCCc1c[nH]c2ccccc12,-8.7%,,"1.84 µM [rising, full curve]"
COc1cc(Br)c(-c2sc(Nc3ccccc3)n[n+]2-c2ccccc2)cc1OC,21.7%,,"29.1 µM [falling, single point]"
CCCOc1ccc(C(=O)CCC(=O)NNC(=O)c2cccs2)cc1,-6.25%,,"29.1 µM [rising, single point]"
Cc1ccc2nc(-c3ccc(NC(=O)CSc4nccc(=O)[nH]4)cc3)sc2c1,,"0.291 µM [falling, single point]","0.411 µM [falling, single point]"
Cc1nccn1CC(=O)N/N=C/c1cccs1,3.63%,,"29.1 µM [rising, single point]"
COc1cccc(-c2nc(CCl)cs2)c1,-10.7%,,
Cn1c(=O)oc2cc(S(=O)(=O)N3CCN(c4ccccc4)CC3)ccc21,1.74%,"4.61 µM [falling, partial curve, poor fit]",
